These results are taken from PMC7819943, “Rice protein-binding microarrays: a tool to detect cis-acting elements near promoter regions in rice”.

Chains of the proteins cited; added tags and fusions are not shown.
UniProt Q0JBA9, entry or part of it: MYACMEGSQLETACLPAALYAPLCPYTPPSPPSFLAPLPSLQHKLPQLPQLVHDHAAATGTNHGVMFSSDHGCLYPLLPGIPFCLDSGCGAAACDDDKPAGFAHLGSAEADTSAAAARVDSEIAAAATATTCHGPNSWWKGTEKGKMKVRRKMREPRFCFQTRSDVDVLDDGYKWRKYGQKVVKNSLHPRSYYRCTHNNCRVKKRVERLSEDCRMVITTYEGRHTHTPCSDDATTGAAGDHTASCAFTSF

Some of the results follow.

This assay has as its target OsWRKY34 (Oryza sativa, UniProt Q0JBA9 1-250). Put plainly: protein-binding microarray (RPBM); PBS, 2% BSA, 51.3 ng/ul salmon testes DNA, 50 uM zinc acetate, 200 nM TF, 25 C, 1 h; high values mean tight binding. As to conditions: protein: recombinant; tags: N-terminal polyhistidine and DsRed monomer fusion (pET32a); label: CyDye5-dUTP incorporated in the synthesized complementary strand; 3' TTTTT single-stranded linker to array surface; dsDNA, one strand shown. An outline of the steps: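 Transcription factors were made in E. coli BL21-CodonPlus as N-terminal fusions to a polyhistidine tag and DsRed, then purified on Ni–NTA. After primer extension with Cy5-dUTP and blocking with 2% BSA, a custom Agilent array was exposed for 1 h at 25 °C to 200 nM protein in PBS, 2% BSA, salmon testes DNA and 50 µM zinc acetate. Washed arrays were scanned on an Axon 4000B, and the binding signal is per-feature fluorescence intensity in arbitrary units.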
For “TCTCTGACATGTTCTATCCATACCACTCAGGCACCTTCCTCGGAGTCACCTAGTGCAG”, the binding signal was 8240 fluorescence intensity (a.u.). The figure for “ACACCGTTGACTTTTTAGTACGTATTTGACCATTCGTCTTCGGAGTCACCTAGTGCAG” is 36700 fluorescence intensity (a.u.); for “GGTGCTGGTGGTGGCCGCCCTGACGGTCCAGACTTTGCTACGGAGTCACCTAGTGCAG” it is 8610 fluorescence intensity (a.u.); for “GAGCTGCAACCACATGCTATCTGGCACTGCATCCTGAACTCGGAGTCACCTAGTGCAG” it is 8390 fluorescence intensity (a.u.). For “AGTTGGCTATAATATATTTCTTCTCTCTCTATCTCTCATTCGGAGTCACCTAGTGCAG”, the binding signal was 17700 fluorescence intensity (a.u.).

Turning to “AGTTGCTTACTGTATTATTAATATCTAGTCCTACCTATCACGGAGTCACCTAGTGCAG”, the binding signal is 8260 fluorescence intensity (a.u.).

Regarding “GCTATACTTGATGACCTACAGGCCTTGTAGTCTACCTGACCGGAGTCACCTAGTGCAG”, the binding signal is 9340 fluorescence intensity (a.u.). Consider “CGTTAGCCCACGCATGGCCTCGTGTCACCGTCGCTTCGAGCGGAGTCACCTAGTGCAG”, for which the binding signal is 8770 fluorescence intensity (a.u.). For “TATTTTTGACTTTGGTCAAAGTCAAACTGTTTTAAGTTTGCGGAGTCACCTAGTGCAG” the value was 17900 fluorescence intensity (a.u.).

On to “TTCTTCTGCTCATGGGTACGCATTTTCTATCGCAGACACTCGGAGTCACCTAGTGCAG”, for which the binding signal was 10600 fluorescence intensity (a.u.). For “AGCCCGTTTCCTCTGCTTTTGATTATTTTTCCTAAGTTTTCGGAGTCACCTAGTGCAG”, the binding signal is 12300 fluorescence intensity (a.u.). For “GTTGCTGGTTTTGTTAGTTTGGTGACCTTGACTTGTAAGACGGAGTCACCTAGTGCAG” the value was 8670 fluorescence intensity (a.u.). On to “GGTCATTCATGTATTTTTCTTGCGTTTTGCAATCCTCTGTCGGAGTCACCTAGTGCAG”, for which the binding signal is 11200 fluorescence intensity (a.u.). The figure for “CATACCTTTCTATGCAACCAATTGCCAAATATCAATTTTCCGGAGTCACCTAGTGCAG” is 8470 fluorescence intensity (a.u.); for “ATTTGCCCAACCATTGCTTTTATGTAAAACAAGCTGTTCTCGGAGTCACCTAGTGCAG” it is 9600 fluorescence intensity (a.u.). In the case of “AGCTTTTGGTCTCATACTCTCATGTTCTTCGTCCCTCTGTCGGAGTCACCTAGTGCAG”, the binding signal is 10700 fluorescence intensity (a.u.). For “TCTCTTCTCTCGCGCTCCCAACGACGCCGCCGCGGCGCCGCGGAGTCACCTAGTGCAG” the value was 8670 fluorescence intensity (a.u.); for “CCTACCTGTAACCAGACCTTGACGCCGACACTCACGTGACCGGAGTCACCTAGTGCAG”, 8710 fluorescence intensity (a.u.). The figure for “GTTCCATTCCCCACCACCACCATCGCCAAAACCCTAGCTTCGGAGTCACCTAGTGCAG” is 8050 fluorescence intensity (a.u.).

For the sequence “GCGGCTCGGTAAGTTGGACTCAATTCCTCGTCTTCCAATCCGGAGTCACCTAGTGCAG”, the binding signal is 10100 fluorescence intensity (a.u.). The figure for “CTTTCTTTCTCGTCGTCACCCAGTTGCCGCTGATGCAATTCGGAGTCACCTAGTGCAG” is 8370 fluorescence intensity (a.u.). The figure for “CAAATTGCGTGAATATTGCCCGTCTCGCTGCAGAATGATCCGGAGTCACCTAGTGCAG” is 8970 fluorescence intensity (a.u.); for “CGCCGATCTGTGGGGTGGGATGGTGGATCGATCCAGATCCCGGAGTCACCTAGTGCAG” it is 8600 fluorescence intensity (a.u.); for “AGAAGGATCTCTCATGGTGGGCTGGGCTTCTCTTAGCTGGCGGAGTCACCTAGTGCAG” it is 9170 fluorescence intensity (a.u.).

On to “GTGGGATATGGACTATGCGAGAGAGAGAGAGAGAGAGAGACGGAGTCACCTAGTGCAG”, for which the binding signal is 10300 fluorescence intensity (a.u.).

For the sequence “AATTATTTTCATTTGCTAAGTTACTATTTCGCATTTTTTTCGGAGTCACCTAGTGCAG”, the binding signal is 8650 fluorescence intensity (a.u.). For “CACATGTGCTGTTATGAAATTAGTTTGTTCATTCGTGTTACGGAGTCACCTAGTGCAG”, the binding signal was 8970 fluorescence intensity (a.u.). For “GCGGCGGGGTGGTGGAACCTTGCGTCTCGCGGCGGAGGGACGGAGTCACCTAGTGCAG” the value was 9670 fluorescence intensity (a.u.); for “TATTTGATTTTTGTGATTTTGGTCATCTATCATTTCTTCCCGGAGTCACCTAGTGCAG”, 9010 fluorescence intensity (a.u.).

As to “AATTTTTTTCCTCTCCTGTTTTGTGCCCTTGATATTATGTCGGAGTCACCTAGTGCAG”, the binding signal was 13400 fluorescence intensity (a.u.). For the sequence “GACGACATAGGGGACATCTTCCGGAGCGTGGGGTGGGAGGCGGAGTCACCTAGTGCAG”, the binding signal is 10100 fluorescence intensity (a.u.). The figure for “CATTCTCCAACAAAGAGATCGTGGGTGGGTTTTCTTCTCCCGGAGTCACCTAGTGCAG” is 13100 fluorescence intensity (a.u.); for “TGTTTTTTCTAACAATATGCACATCCACGGTTCTGTTTCTCGGAGTCACCTAGTGCAG” it is 10600 fluorescence intensity (a.u.). As to “TTCCATGTGTCCCAGTTAAAGCAATTTGTTCCTGACAACACGGAGTCACCTAGTGCAG”, the binding signal is 8380 fluorescence intensity (a.u.).

As for “CACCCCGCAGATCCACCAAACCACACACGGCCGTCGCTGACGGAGTCACCTAGTGCAG”, the binding signal was 8120 fluorescence intensity (a.u.).

“CGTGATCCAGCTCTTGTTTCTCCTTTCTTTCAGTTGCATGCGGAGTCACCTAGTGCAG”: the binding signal was 9330 fluorescence intensity (a.u.).

As to “TGCCTTTTCATTCTTCCCTCCTACCTCGTTGGCCACTACACGGAGTCACCTAGTGCAG”, the binding signal is 8390 fluorescence intensity (a.u.). The figure for “CGTGTTTTTCCTTATCACGTACTCCCACCTATTTGTATAACGGAGTCACCTAGTGCAG” is 8920 fluorescence intensity (a.u.); for “GTGTTTTAAGTGCTCTCTTTGTTCTCAAGTGTGCATTTTTCGGAGTCACCTAGTGCAG” it is 9180 ± 145 fluorescence intensity (a.u.). For “CAACTTAGCATATTGAAATTTCTACTGTCATGCTTCCTTGCGGAGTCACCTAGTGCAG” the value was 8230 fluorescence intensity (a.u.). As to “GACCAGGCCCTCGCTCCGTCACACTCGCCTGCCTCCGTTCCGGAGTCACCTAGTGCAG”, the binding signal is 8540 fluorescence intensity (a.u.). “AGATTAGTTTCTATTTTAAGTTAGTTGCTCTTTCTGTTCCCGGAGTCACCTAGTGCAG”: the binding signal was 10200 fluorescence intensity (a.u.). For the sequence “ATGACGCCCAATAATTCAACCGAAGAACAACCACACCTATCGGAGTCACCTAGTGCAG”, the binding signal was 9180 fluorescence intensity (a.u.). As to “TAATCGCGCGGGGAGGGTGCACGCGACTAATCGCCCATTACGGAGTCACCTAGTGCAG”, the binding signal is 8340 fluorescence intensity (a.u.). For “CCATGGGGATGGTGGTGCAGGTGCTCGAGGGGCTCGTCGACGGAGTCACCTAGTGCAG” the value was 8030 fluorescence intensity (a.u.); for “CACCACCACCCGCACCGTCCGCACACTCGTCCGCTTCCGTCGGAGTCACCTAGTGCAG”, 11000 fluorescence intensity (a.u.); for “GTCTACGTTTAATACTTCAATGTGTGACCGTGTATCCGATCGGAGTCACCTAGTGCAG”, 8490 fluorescence intensity (a.u.).

With “AGTTCACCCTCCCACAACGTTGTAACTTCTTTAAAGCAAACGGAGTCACCTAGTGCAG”, the binding signal was 8500 fluorescence intensity (a.u.). The figure for “CGGCCTTTTTTTAAGCTTATCTCTATCACTCGCTCTTCCGCGGAGTCACCTAGTGCAG” is 12600 fluorescence intensity (a.u.). With “CACGTAAAATTTGTATCTCCATTATGCATCTTTTTAATTTCGGAGTCACCTAGTGCAG”, the binding signal was 13800 fluorescence intensity (a.u.).

For “CTTACCTCATCACCGTCGTCGCGATCCTCAAATCTCTTTCCGGAGTCACCTAGTGCAG”, the binding signal is 8410 fluorescence intensity (a.u.). The figure for “CTTTGCTTTCTCAGCTTCTGTCCTTGTTTTGACTTTATGTCGGAGTCACCTAGTGCAG” is 9520 fluorescence intensity (a.u.); for “CCTTGTCTGTACTCTCTCTACTTTCCACCTCTATCCGCCTCGGAGTCACCTAGTGCAG” it is 9420 fluorescence intensity (a.u.); for “GTGAAAAATTTTAGGGTGGGATCTAAACAGGGCCTAGGAACGGAGTCACCTAGTGCAG” it is 8990 fluorescence intensity (a.u.).
